Source: patent publication US10434097B1, “Methods and compositions for treating hearing disorders” (GATEWAY BIOTECHNOLOGY, INC., priority 2015, dated 2019)
Entries after “also recorded” stand apart in the source; their conditions may differ. At least one compound was matched to its structure with a doubt left.

Legend:
Assay type in all cases: in vivo
CBA/CaJ mice [1] = assay: NIHL, white noise 110 dB SPL 30 min, ABR TTS, repeated TET (Example 6); settings: 120 mg/kg two days before and three days after noise
Source text: The average TTS across all test frequencies was 69.7 dB for the control group, 62.9 dB for the TET-treated group (about 6.8 dB of protection).

CBA/CaJ mice [2] = assay: NIHL intervention, OHC and IHC ribbon synapse counts in cochlea (Example 11); settings: prevent group
CBA/CaJ mice [3] = assay: NIHL intervention, ABR threshold shifts (Example 11)
mice [4] = assay: Salicylate-induced tinnitus model, SBAD Go/No-Go (Example 12); settings: sodium salicylate 400 mg/kg i.p.
Source text: The SBAD method with Go/No-Go paradigm was used for behavioral test in mice. For “Go” trial animals were trained to move from one compartment to another upon presentation of a sound. For “No-Go” trial animals were trained to stay in the compartment. Otherwise they received a shock. “Go” paradigm was used to monitor motor, motivation, and memory functions while “No-Go” was used to detect tinnitus-like behavior. A baseline was established for each mouse over three consecutive days. The same SBAD method was repeated one hour after intraperitoneal injections of sodium salicylate (400 mg/kg), and two hours after TET injections.

CBA/CaJ mice [5] = assay: NIHL intervention, ABR wave-1 amplitudes (Example 11); settings: prevent group
chinchillas = assay: NIHL model in chinchillas, ABR TTS/PTS (Example 6)
CBA/CaJ mice [6] = assay: NIHL intervention, DPOAE amplitudes (Example 11); settings: prevent group: single 120 mg/kg two hours before noise, p=0.002
CBA/CaJ mice [7] = assay: NIHL, broadband noise, single TET injection 2 h before, ABR TTS/PTS (Example 6); settings: 120 mg/kg i.p. 2 h before noise
mice [8] = assay: Noise-induced tinnitus model, SBAD Go/No-Go (Example 12); settings: 120 dB noise (4-25 kHz) two hours, one ear
Source text: The SBAD method with Go/No-Go paradigm was used for behavioral test in mice. For “Go” trial animals were trained to move from one compartment to another upon presentation of a sound. For “No-Go” trial animals were trained to stay in the compartment. Otherwise they received a shock. “Go” paradigm was used to monitor motor, motivation, and memory functions while “No-Go” was used to detect tinnitus-like behavior. One ear was exposed to a 120 dB noise (4-25 kHz) for two hours for this noise-induced tinnitus model. DPOAE and ABR were measured to monitor possible hearing loss in each ear 2 weeks after noise exposure. SBAD measurements were made 2, 4, and 8 weeks after noise exposure, and also after TET (0, 30, 60, 90 mg/kg) injection.

CBA/CaJ mice [9] = assay: Early noise-induced accelerated ARHL model, ABR thresholds (Example 2); settings: 2 to 5 months old, two-way ANOVA p<0.001
Method: Currently, no FDA-approved medications against ARHL are available. Two-month old CBA/CaJ mice were exposed to octave band (4-25 kHz) noise at 110 dB SPL for 30 minutes. This is a well-established noise model for our drug screenings since the noise exposure leads to dramatic acute and permanent hearing threshold shifts 24 hours and two weeks post-exposure respectively. In addition, apparently accelerated age-related increase in the auditory brainstem response (ABR) thresholds were observed three months after the noise exposure in the control group (n=6), up to approximately 50 dB at 40 kHz. Mice treated with TET (n=5) three days before and two days after the noise exposure had only about an increase of 10 dB at 40 kHz three months after exposure (FIG. 2). […] Thus, TET treatment at a young age could prevent accelerated age-related hearing loss due to early noise exposure.

COc1ccc2cc1Oc1ccc(cc1)C[C@H]1c3cc(c(OC)cc3CCN1C)Oc1c(OC)c(OC)cc3c1[C@H](C2)N(C)CC3 [TET, tetrandrine]
ABR thresholds, drug-treated vs control group (Tukey post-hoc) (CBA/CaJ mice [1]): significantly different
IHC synaptic ribbon survival vs control (CBA/CaJ mice [2]; Day 15, 10, 20, 28.3 and 40 kHz regions): more synaptic ribbon survival than the control group; also recorded: significantly more
proportion of surviving OHCs vs control (CBA/CaJ mice [2]; Day 15, regions tuned to 10, 20, 28.3 and 40 kHz): higher; also recorded: significantly more surviving OHCs
ABR threshold shift (PTS) vs control, Day 15 (CBA/CaJ mice [3]; TET100: 100 mg/kg once per day for five days, p=0.009): lower threshold shifts than the control; also recorded: significantly lower
ABR threshold shift (PTS) vs control, Day 15 (CBA/CaJ mice [3]; TET120: 120 mg/kg once per day for five days, p<0.001): lower threshold shifts than the control; also recorded: significantly lower
ABR threshold shift vs control, Day 1 (CBA/CaJ mice [3]; TET120: 120 mg/kg once per day for five days, p=0.018): lower threshold shifts than the control
ABR threshold shift (PTS) vs control, Day 15 (CBA/CaJ mice [3]; prevent group: single 120 mg/kg two hours before noise, p<0.001 vs control, p=0.010 vs treatment group, 120 mg/kg): lower threshold shifts than the control; also recorded: significantly lower PTS than the control
ABR threshold shift (PTS) vs control, Day 15 (CBA/CaJ mice [3]; prevent group: single 120 mg/kg two hours before noise, p<0.001 vs control, p=0.010 vs treatment group, listed as tetrandrine, 120 mg/kg): significant protective
ABR threshold shift vs control, Day 1 (CBA/CaJ mice [3]; prevent group: single 120 mg/kg two hours before noise, p=0.003, 120 mg/kg): significantly lower threshold shifts than the control group
ABR threshold shift vs control, Day 1 (CBA/CaJ mice [3]; treatment group: single 120 mg/kg immediately after noise, p<0.001, 120 mg/kg): significantly lower threshold shifts than the control group
behavioral indications of tinnitus (No-Go) (mice [4]; 5 mg/kg): no significant changes
behavioral indications of tinnitus (No-Go) (mice [4]; 10 mg/kg): significantly decreased
behavioral indications of tinnitus (No-Go) (mice [4]; 30 mg/kg): significantly decreased
ABR wave-1 amplitudes vs control (CBA/CaJ mice [5]; Day 15, across frequencies at 50-60 dB SPL and 70-90 dB SPL): higher amplitudes
ABR wave-1 amplitude recovery at 10 and 20 kHz (CBA/CaJ mice [5]; Day 15 post noise): recovered by Day 15 to near pre-exposure amplitudes
ABR wave-1 amplitude recovery at 28.3 and 40 kHz (CBA/CaJ mice [5]; Day 15 post noise, compared to pre-exposure baselines): partially recovered
TTS protection (chinchillas; 60 mg/kg i.p. 2 h before noise (0.5-6 kHz, 115 dB SPL, 1 h), F=7.401, p<0.01): significant protection
PTS protection (chinchillas; 60 mg/kg i.p. 2 h before noise, F=8.31, p<0.01): significant protection
DPOAE amplitudes vs control, Day 15 (CBA/CaJ mice [6]): control group's amplitudes were significantly lower than the prevent group; also recorded: significantly higher than the control group's
TTS protection (CBA/CaJ mice [7]; 24 h after exposure, F=12.741, p<0.01): significant protection effect
PTS protection (CBA/CaJ mice [7]; three weeks post-exposure, F=9.577, p<0.01): significant protection effect
behavioral indications of tinnitus (No-Go) (mice [8]; 30 mg/kg): no significant changes
behavioral indications of tinnitus (No-Go) (mice [8]; 60 mg/kg): significantly decreased
behavioral indications of tinnitus (No-Go) (mice [8]; 90 mg/kg): significantly decreased
ABR threshold shifts, control vs TET-treated (CBA/CaJ mice [9]): significant difference
